Source: PubChem BioAssay AID1159584 (Peter MacCallum Cancer Centre, 2016)
Test: 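Genes that CDH1-null MCF10A cells selectively depend on to survive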 (primary screen). Cells: human MCF10A breast epithelial cells, parental and CDH1-null. Reagents: siRNA against human genes. Read-out: 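ATP luminescence (CellTiter-Glo) viability per line relative to mean mock wells over all plates, and the ratio of CDH1-null to parental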. Scale: CDH1-null / parental viability ratio: higher = CDH1-null cells survive relatively better than parental.
Here is a random part of about 18,000 reagents tested. Reagents against one gene are numbered here. Not all columns of the deposit are shown. Not stated in the record: the amount of reagent, the time to read-out.

CDH1-null / parental viability ratio, by gene and reagent
DNAJC2 (GeneID 27000): #1 0.83
DGKK (GeneID 139189): #1 0.79
COL2A1 (GeneID 1280): #1 1.15
RND1 (GeneID 27289): #1 0.96
H3C3 (GeneID 8352): #1 1.09
FAHD2A (GeneID 51011): #1 0.84
CHRNA4 (GeneID 1137): #1 1.38
APOBEC1 (GeneID 339): #1 0.78
KIF4A (GeneID 24137): #1 1.56
NHSL2 (GeneID 340527): #1 0.95; #2 1.02
DNAJC12 (GeneID 56521): #1 1.08
FCMR (GeneID 9214): #1 0.81
MIOS (GeneID 54468): #1 0.87
KCNT2 (GeneID 343450): #1 1.13
MORF4L1 (GeneID 10933): #1 1.67
RIPOR2 (GeneID 9750): #1 0.96
NKX2-5 (GeneID 1482): #1 0.91
MYT1 (GeneID 4661): #1 0.7
KBTBD6 (GeneID 89890): #1 0.84
WDR41 (GeneID 55255): #1 0.89
MEGF10 (GeneID 84466): #1 1.05
BEX1 (GeneID 55859): #1 0.99
BTN2A2 (GeneID 10385): #1 0.85
SEC22C (GeneID 9117): #1 0.97
OR2AE1 (GeneID 81392): #1 0.84
MYCBP2 (GeneID 23077): #1 1
PCDHB10 (GeneID 56126): #1 1.07
EIF4A1 (GeneID 1973): #1 1.19
RNMT (GeneID 8731): #1 0.93
IST1 (GeneID 9798): #1 1.06
CSMD2 (GeneID 114784): #1 1
AVP (GeneID 551): #1 1.08
OCEL1 (GeneID 79629): #1 1
NBN (GeneID 4683): #1 0.93
MRPS27 (GeneID 23107): #1 0.85
FRS2 (GeneID 10818): #1 1.32
LDLRAD4 (GeneID 753): #1 0.73
ZBTB7C (GeneID 201501): #1 1.02
SERTAD2 (GeneID 9792): #1 1.27
SRSF10 (GeneID 10772): #1 1.05
CHMP1A (GeneID 5119): #1 1.36
EBF3 (GeneID 253738): #1 1.19
FAM53A (GeneID 152877): #1 0.69
TNFSF4 (GeneID 7292): #1 1.37
DKK2 (GeneID 27123): #1 1.31
ZNF335 (GeneID 63925): #1 0.95
CTDSPL2 (GeneID 51496): #1 0.95
AP1S3 (GeneID 130340): #1 0.95
MBOAT2 (GeneID 129642): #1 1.21
ZNF480 (GeneID 147657): #1 1.08
SRRM3 (GeneID 222183): #1 1.38
RTL10 (GeneID 79680): #1 1.17
NDST1 (GeneID 3340): #1 0.95
PDK1 (GeneID 5163): #1 1.07
MAGEB4 (GeneID 4115): #1 1.03
HSPA4L (GeneID 22824): #1 0.93
AMIGO1 (GeneID 57463): #1 1.12
ZBTB9 (GeneID 221504): #1 1
GJB1 (GeneID 2705): #1 0.88
ACOT13 (GeneID 55856): #1 1.05
ZNF177 (GeneID 7730): #1 1.05
MFAP1 (GeneID 4236): #1 1.3
TAX1BP1 (GeneID 8887): #1 1.03
TFAP2D (GeneID 83741): #1 0.73
FKRP (GeneID 79147): #1 0.89
UMPS (GeneID 7372): #1 0.98
BCAS1 (GeneID 8537): #1 1.28
OR10A6 (GeneID 390093): #1 1.26
VCX2 (GeneID 51480): #1 1.03
HDX (GeneID 139324): #1 0.96
STAR (GeneID 6770): #1 1.11
DHX37 (GeneID 57647): #1 0.91
OR10AD1 (GeneID 121275): #1 1.15
ALDH5A1 (GeneID 7915): #1 1.37
ARFIP2 (GeneID 23647): #1 0.91
CTBP1 (GeneID 1487): #1 0.9
TMEM161A (GeneID 54929): #1 1.14
PTK6 (GeneID 5753): #1 0.92
SPATA31G1 (GeneID 138724): #1 1.18
CATSPERT (GeneID 151254): #1 1.02
DMXL2 (GeneID 23312): #1 0.95
BRMS1L (GeneID 84312): #1 0.82
PATL1 (GeneID 219988): #1 1.15
AGO2 (GeneID 27161): #1 1
ZBTB22 (GeneID 9278): #1 1.02
IRAG1 (GeneID 10335): #1 1.04

Quoted from above for reference:
CDH1-null / parental viability ratio, by gene and reagent
GJB1 (GeneID 2705): #1 0.88
ACOT13 (GeneID 55856): #1 1.05
ZNF177 (GeneID 7730): #1 1.05
MFAP1 (GeneID 4236): #1 1.3
TAX1BP1 (GeneID 8887): #1 1.03
TFAP2D (GeneID 83741): #1 0.73
FKRP (GeneID 79147): #1 0.89
UMPS (GeneID 7372): #1 0.98
